The values below come from article PMC9655893.

Sequences of proteins named here, by UniProt entry; tags and fusion partners are left off.
UniProt P09104: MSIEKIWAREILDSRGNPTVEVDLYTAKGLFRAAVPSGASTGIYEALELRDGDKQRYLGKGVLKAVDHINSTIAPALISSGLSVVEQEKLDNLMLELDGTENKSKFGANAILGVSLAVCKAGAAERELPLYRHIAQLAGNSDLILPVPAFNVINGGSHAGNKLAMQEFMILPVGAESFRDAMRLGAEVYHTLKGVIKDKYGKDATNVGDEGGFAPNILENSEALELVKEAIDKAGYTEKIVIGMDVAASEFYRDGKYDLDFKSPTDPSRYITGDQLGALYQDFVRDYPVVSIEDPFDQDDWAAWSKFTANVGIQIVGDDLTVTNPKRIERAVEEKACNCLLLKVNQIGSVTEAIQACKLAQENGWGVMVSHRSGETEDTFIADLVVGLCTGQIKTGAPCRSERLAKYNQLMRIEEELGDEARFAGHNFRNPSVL

For the assay, the target named is T1, adaptor protein FAM159B (human (endogenous in BON-1)) (UniProt A6NKW6).
T1 sequence: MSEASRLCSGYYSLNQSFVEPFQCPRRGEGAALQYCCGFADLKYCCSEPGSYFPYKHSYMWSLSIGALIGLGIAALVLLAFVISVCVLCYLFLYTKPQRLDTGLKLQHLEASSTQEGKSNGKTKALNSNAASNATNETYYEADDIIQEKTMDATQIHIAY
The assay is described as follows: co-IP; endogenous proteins in BON-1 lysate (150 mM NaCl, 50 mM Tris-HCl pH 7.4, 5 mM EDTA, 1% Triton X-100, 0.5% Na-deoxycholate, 0.1% SDS); precleared with protein A/G PLUS agarose beads; precipitated with anti-FAM159B HPA011778 for 1 h at 4 °C, then new protein A/G beads; blot with anti-NSE antibody.

These are yes or no findings as the source states them, for the method shown. Binding seen in cells or lysates may run through a third protein. Some binding calls cover weakened binding; strength is not graded here.

For “neuron-specific enolase (from UniProt P09104 1-434) (enzyme)”, the binding entry is given as “binds”.
